According to patent publication US10154673B2, “Method of removing lactose from a solution” (Stellenbosch University, priority 2014, dated 2018):

Assay: Adsorption of β-gal onto Dynabeads (HIPD), BCA protein determination
Type: binding
Settings: Langmuir-Freundlich
Description: To determine the amount (μg) of β-gal that was bound to Dynabeads® (HIPD), a BCA protein assay was performed according to the manufacturer's protocol. A standard curve with BSA was established in a range from 0 to 2 mg/ml. The analysis was performed at 540 nm.
A dilution series of purified β-gal wildtype and E537D mutant was prepared in a concentration range from 0 to 0.4 mg/ml. The dilution series was incubated with the beads (25 μl) for 10 min at 25° C. according to the manufacturer's protocol to ensure optimal adsorption of β-gal onto the beads. The beads were subsequently separated from the solution with a magnet and the supernatant was removed and analysed as described immediately above. The beads were then washed three times in dialysis buffer and the supernatant of the wash steps were also analysed for protein content.
The experimental procedure described above was repeated at 4 and 37° C.
Purified β-gal (wildtype and E537D mutant), was incubated with the beads (25 μl) at room temperature and optimal concentration to ensure maximum binding. The supernatant was removed from the solution at regular time intervals for 10 min. The collected fractions were assayed for protein content as described above. Analysis of β-gal bound to the beads took place with SDS-PAGE and Western blot analyses as outlined above.

Substance	qm (μg β-gal/mg beads) (4° C.)	qm (μg β-gal/mg beads) (25° C.)	qm (μg β-gal/mg beads) (37° C.)	qm (μg β-gal/mg beads) (25° C., listed as Wildtype)	qm (μg β-gal/mg beads) (25° C., listed as wildtype)
E537D mutant: N-terminal His-tagged E. coli β-galactosidase with Glu537 replaced by Asp	9.575 ± 0.877 μg β-gal/mg beads	47.81±1.273 μg β-gal/mg beads	19.26 ± 1.197 μg β-gal/mg beads	–	–
wildtype β-gal: N-terminal His-tagged wildtype E. coli β-galactosidase (lacZ product), expressed and IMAC purified [reference compound]	12.12 ± 1.040 μg β-gal/mg beads	–	23.79 ± 2.023 μg β-gal/mg beads	45.88 ± 1.422 μg β-gal/mg beads	45.88±1.422 μg β-gal/mg beads
